Results from article doi:10.1101/2024.10.23.619800.
Results are given in words; binding and its absence hold for the method and conditions named. Some results given as binding are weak or reduced against the parent protein; the word gives no strength.

Target: ninjurin-1 (NINJ1) (mouse (endogenous in primary mouse macrophages)) (UniProt O70131)
Assay: native gel or EMSA

B1: ninjurin-1 (NINJ1) (protein, UniProt O70131 1-152)
chain: MESGTEEYELNGDLRPGSPGSPDALPPRWGLRNRPINVNHYANKKSAAESMLDIALLMANASQLKAVVEQGNDFAFFVPLVVLISISLVLQIGVGVLLIFLVKYDLNNPAKHAKLDFLNNLATGLVFIIVVVNIFITAFGVQKPVMDVAPRQ
With B1 the binding was “binds”.
